Measured values published in US20160280750A1.

Target: HLA-B*2705 (human)
Test: REVEAL in vitro MHC-peptide binding assay on HLA-B2705

binding: binds
B1: Peptide I.D. 1 … (peptide)
peptide: KRFNALQYL

No constants are given. Whether binding was seen depends on the method and setting. A result given as binding can be weak or reduced; the word gives no strength.
